Results deposited as PubChem BioAssay AID1159578 (Peter MacCallum Cancer Centre, 2015).
This is one part, drawn at random, of about 18,000 reagents tested. In the full data, about 1,030 (5.7%) got an active call. 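Inactive calls also include pools with fewer than 3300 nuclei, whose migration was not assessed.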 The raw values are shown without normalisation. No sequences are given here.

Aim: 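siRNA pools altering how lymphatic endothelial cells close a scratch wound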 (primary screen)
System: human lymphatic endothelial cells
Reagent: siRNA pool against human genes, 40 nM
Timing: 48 h after transfection
Read-out: 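High-content imaging of dye-stained cells in a scratch assay measures filled wound area and nuclei per well; duplicate means given as ratio to mock and robust z-score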
Direction: migration robust z-score: higher = faster migration into the scratch; migration relative to mock: higher = more scratch area covered than mock; nuclei per well: higher = more cells in the well
Hit rule: 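Pools averaging fewer than 3300 nuclei are never called; remaining pools count as changed when migration robust z lies outside -2 to 2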
Meaning of the calls: active = migration changed; inactive = no migration change, or too few cells

| gene knocked down | migration robust z-score | migration class with cell-count check | migration relative to mock | nuclei per well, duplicate mean | Call |
| --- | --- | --- | --- | --- | --- |
| NAA11 | 0.56 | migration z between -2 and 2; enough cells | 1.03 | 5840 | inactive |
| USP49 | 0 | migration z between -2 and 2; enough cells | 0.8 | 3738 | inactive |
| SMAD9 | -0.62 | migration z between -2 and 2; enough cells | 0.68 | 3600 | inactive |
| CDK15 | -0.02 | migration z between -2 and 2; enough cells | 0.8 | 5722 | inactive |
| RMC1 | 1.39 | migration z between -2 and 2; enough cells | 1.25 | 6609 | inactive |
| RBM47 | 1.14 | migration z between -2 and 2; enough cells | 1.19 | 5895 | inactive |
| KRT17 | -1.27 | under 3300 nuclei; migration not judged | 0.55 | 3287 | inactive |
| SNX18 | -0.59 | migration z between -2 and 2; enough cells | 0.74 | 4843 | inactive |

Part of the list above in another layout.
{"gene knocked down": "USP49", "migration robust z-score": 0, "migration class with cell-count check": "migration z between -2 and 2; enough cells", "migration relative to mock": 0.8, "nuclei per well, duplicate mean": 3738, "Call": "inactive"}
{"gene knocked down": "SMAD9", "migration robust z-score": -0.62, "migration class with cell-count check": "migration z between -2 and 2; enough cells", "migration relative to mock": 0.68, "nuclei per well, duplicate mean": 3600, "Call": "inactive"}
{"gene knocked down": "CDK15", "migration robust z-score": -0.02, "migration class with cell-count check": "migration z between -2 and 2; enough cells", "migration relative to mock": 0.8, "nuclei per well, duplicate mean": 5722, "Call": "inactive"}

The listing continues.
| gene knocked down | migration robust z-score | migration class with cell-count check | migration relative to mock | nuclei per well, duplicate mean | Call |
| --- | --- | --- | --- | --- | --- |
| LINC02694 | 0.94 | migration z between -2 and 2; enough cells | 1.14 | 6698 | inactive |
| MMP16 | 0.55 | migration z between -2 and 2; enough cells | 0.91 | 5651 | inactive |
| HPS4 | 0.15 | migration z between -2 and 2; enough cells | 0.92 | 5640 | inactive |
| ERF | 0.57 | migration z between -2 and 2; enough cells | 0.92 | 5833 | inactive |
| HOXB7 | -1.25 | migration z between -2 and 2; enough cells | 0.56 | 4448 | inactive |
| ADO | -1.97 | migration z between -2 and 2; enough cells | 0.38 | 5946 | inactive |
| SYS1 | -2.96 | under 3300 nuclei; migration not judged | 0.12 | 1496 | inactive |
| CAGE1 | -0.18 | migration z between -2 and 2; enough cells | 0.84 | 4957 | inactive |
| ZNF669 | -3.52 | under 3300 nuclei; migration not judged | -0.05 | 2224 | inactive |
| GPR119 | -0.21 | migration z between -2 and 2; enough cells | 0.76 | 6804 | inactive |
| PPFIA2 | 2.08 | migration z above 2; enough cells | 1.21 | 3865 | active |
| A2M | 0.46 | migration z between -2 and 2; enough cells | 0.9 | 4756 | inactive |
| RNF183 | -2.34 | migration z below -2; enough cells | 0.36 | 5054 | active |
| ACAD11 | -0.18 | migration z between -2 and 2; enough cells | 0.77 | 5978 | inactive |
| GPR146 | -0.16 | migration z between -2 and 2; enough cells | 0.78 | 4693 | inactive |
